Experiment [1] addresses cynomolgus monkey CD3 on cynomolgus T cells (cynomolgus monkey) (UniProt Q95LI5). Nature of the experiment: FACS assays. For orientation: A flow cytometer gives signals particle by particle.
The target in experiment [2] is human CD3 on cells (Jurkat cells, human T cells) (human) (UniProt P07766). As to the kind of experiment: FACS assays.

The chains behind the UniProt entries cited, without tags or fusion partners. Where a name states a change or a piece, a line headed by the entry shows the natural chain unless it says otherwise. Residues count along the entry.
UniProt Q95LI5, residues 22-198: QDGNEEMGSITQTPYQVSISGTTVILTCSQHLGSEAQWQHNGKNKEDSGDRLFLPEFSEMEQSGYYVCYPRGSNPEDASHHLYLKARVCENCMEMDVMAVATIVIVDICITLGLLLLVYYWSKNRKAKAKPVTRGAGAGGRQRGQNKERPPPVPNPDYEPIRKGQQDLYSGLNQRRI
UniProt P07766: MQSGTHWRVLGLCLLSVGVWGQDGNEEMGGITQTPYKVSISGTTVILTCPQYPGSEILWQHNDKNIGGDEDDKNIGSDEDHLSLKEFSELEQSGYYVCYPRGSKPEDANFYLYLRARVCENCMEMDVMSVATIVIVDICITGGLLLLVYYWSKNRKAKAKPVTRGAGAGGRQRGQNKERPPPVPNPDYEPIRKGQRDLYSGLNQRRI

These are yes or no findings as the source states them, for the method shown. Some entries that bind do so weakly or less than the wild type.

Among the data in US20180112001A1 are binding values, retold here.

B1: CD3-VH-G (anti-CD3 antibody engineered to contain only germline frameworks) (antibody, V domains shown)
VH: EVQLVESGGGLVQPGRSLRLSCAASGFTFDDYSMHWVRQAPGKGLEWVSGISWNSGSKGYADSVKGRFTISRDNAKNSLYLQMNSLRAEDTALYYCAKYGSGYGKFYHYGLDVWGQGTTVTVSS
VL: DIQMTQSPSSLSASVGDSVTITCRASQSINNYLNWYQQKPGKAPKLLIYTASSLLSGVPSRFSGSGSGTDFTLTISGLHPEDFATYFCQQSFSTPPITFGQGTRLDIK
Turning to B1, the binding result in experiment [1] and in experiment [2] was “binds” in each case.
